For at least one entry, the source does not settle the construct or the ends of the probe. For some of these results: Weaker means in comparison with the reference protein, sequence or condition of that experiment. At least one verdict rests on a figure or table, not on a statement of the authors.
Legend:
Assay in all cases: EMSA
BRCA2-C2 (Homo sapiens) = BRCA2-C2 (Homo sapiens) (UniProt P51587); details: affinity correlates with RAD51 nucleation ability; EMSA: 4 nM Cy5-DNA, 20 mM HEPES pH 7.5, 1 mM MgCl2, 1 mM TCEP, 100 mM KCl, 24 C, 5 min; recombinant protein; residues 966-3418; protein details: C-terminal eGFP, twin strep; label: 5'-Cy5; single-stranded DNA
BRCA2-N (Homo sapiens) = BRCA2-N (Homo sapiens) (UniProt P51587); details: affinity correlates with RAD51 nucleation ability; EMSA: 4 nM Cy5-DNA, 20 mM HEPES pH 7.5, 1 mM MgCl2, 1 mM TCEP, 100 mM KCl, 24 C, 5 min; recombinant protein; residues 1-2142; protein details: C-terminal eGFP, twin strep; label: 5'-Cy5; single-stranded DNA
BRCA2-C (Homo sapiens) = details: affinity correlates with RAD51 nucleation ability; EMSA: 4 nM Cy5-DNA, 20 mM HEPES pH 7.5, 1 mM MgCl2, 1 mM TCEP, 100 mM KCl, 24 C, 5 min; recombinant protein; protein details: C-terminal eGFP, twin strep; label: 5'-Cy5; single-stranded DNA
[1] = target: BRCA2 full-length (Homo sapiens) (UniProt P51587); details: eGFP status of full-length protein not stated; EMSA: 4 nM Cy5-DNA, 20 mM HEPES pH 7.5, 1 mM MgCl2, 1 mM TCEP, 100 mM KCl, 24 C, 5 min; recombinant protein; residues 1-3418; protein details: C-terminal Flag3; label: 5'-Cy5; single-stranded DNA

Chains of the proteins cited; added tags and fusions are not shown. A line that says so, or that is headed by a name, gives the form on record, which may keep a tag or linker. Residues count along the entry.
UniProt P51587, 966-3418: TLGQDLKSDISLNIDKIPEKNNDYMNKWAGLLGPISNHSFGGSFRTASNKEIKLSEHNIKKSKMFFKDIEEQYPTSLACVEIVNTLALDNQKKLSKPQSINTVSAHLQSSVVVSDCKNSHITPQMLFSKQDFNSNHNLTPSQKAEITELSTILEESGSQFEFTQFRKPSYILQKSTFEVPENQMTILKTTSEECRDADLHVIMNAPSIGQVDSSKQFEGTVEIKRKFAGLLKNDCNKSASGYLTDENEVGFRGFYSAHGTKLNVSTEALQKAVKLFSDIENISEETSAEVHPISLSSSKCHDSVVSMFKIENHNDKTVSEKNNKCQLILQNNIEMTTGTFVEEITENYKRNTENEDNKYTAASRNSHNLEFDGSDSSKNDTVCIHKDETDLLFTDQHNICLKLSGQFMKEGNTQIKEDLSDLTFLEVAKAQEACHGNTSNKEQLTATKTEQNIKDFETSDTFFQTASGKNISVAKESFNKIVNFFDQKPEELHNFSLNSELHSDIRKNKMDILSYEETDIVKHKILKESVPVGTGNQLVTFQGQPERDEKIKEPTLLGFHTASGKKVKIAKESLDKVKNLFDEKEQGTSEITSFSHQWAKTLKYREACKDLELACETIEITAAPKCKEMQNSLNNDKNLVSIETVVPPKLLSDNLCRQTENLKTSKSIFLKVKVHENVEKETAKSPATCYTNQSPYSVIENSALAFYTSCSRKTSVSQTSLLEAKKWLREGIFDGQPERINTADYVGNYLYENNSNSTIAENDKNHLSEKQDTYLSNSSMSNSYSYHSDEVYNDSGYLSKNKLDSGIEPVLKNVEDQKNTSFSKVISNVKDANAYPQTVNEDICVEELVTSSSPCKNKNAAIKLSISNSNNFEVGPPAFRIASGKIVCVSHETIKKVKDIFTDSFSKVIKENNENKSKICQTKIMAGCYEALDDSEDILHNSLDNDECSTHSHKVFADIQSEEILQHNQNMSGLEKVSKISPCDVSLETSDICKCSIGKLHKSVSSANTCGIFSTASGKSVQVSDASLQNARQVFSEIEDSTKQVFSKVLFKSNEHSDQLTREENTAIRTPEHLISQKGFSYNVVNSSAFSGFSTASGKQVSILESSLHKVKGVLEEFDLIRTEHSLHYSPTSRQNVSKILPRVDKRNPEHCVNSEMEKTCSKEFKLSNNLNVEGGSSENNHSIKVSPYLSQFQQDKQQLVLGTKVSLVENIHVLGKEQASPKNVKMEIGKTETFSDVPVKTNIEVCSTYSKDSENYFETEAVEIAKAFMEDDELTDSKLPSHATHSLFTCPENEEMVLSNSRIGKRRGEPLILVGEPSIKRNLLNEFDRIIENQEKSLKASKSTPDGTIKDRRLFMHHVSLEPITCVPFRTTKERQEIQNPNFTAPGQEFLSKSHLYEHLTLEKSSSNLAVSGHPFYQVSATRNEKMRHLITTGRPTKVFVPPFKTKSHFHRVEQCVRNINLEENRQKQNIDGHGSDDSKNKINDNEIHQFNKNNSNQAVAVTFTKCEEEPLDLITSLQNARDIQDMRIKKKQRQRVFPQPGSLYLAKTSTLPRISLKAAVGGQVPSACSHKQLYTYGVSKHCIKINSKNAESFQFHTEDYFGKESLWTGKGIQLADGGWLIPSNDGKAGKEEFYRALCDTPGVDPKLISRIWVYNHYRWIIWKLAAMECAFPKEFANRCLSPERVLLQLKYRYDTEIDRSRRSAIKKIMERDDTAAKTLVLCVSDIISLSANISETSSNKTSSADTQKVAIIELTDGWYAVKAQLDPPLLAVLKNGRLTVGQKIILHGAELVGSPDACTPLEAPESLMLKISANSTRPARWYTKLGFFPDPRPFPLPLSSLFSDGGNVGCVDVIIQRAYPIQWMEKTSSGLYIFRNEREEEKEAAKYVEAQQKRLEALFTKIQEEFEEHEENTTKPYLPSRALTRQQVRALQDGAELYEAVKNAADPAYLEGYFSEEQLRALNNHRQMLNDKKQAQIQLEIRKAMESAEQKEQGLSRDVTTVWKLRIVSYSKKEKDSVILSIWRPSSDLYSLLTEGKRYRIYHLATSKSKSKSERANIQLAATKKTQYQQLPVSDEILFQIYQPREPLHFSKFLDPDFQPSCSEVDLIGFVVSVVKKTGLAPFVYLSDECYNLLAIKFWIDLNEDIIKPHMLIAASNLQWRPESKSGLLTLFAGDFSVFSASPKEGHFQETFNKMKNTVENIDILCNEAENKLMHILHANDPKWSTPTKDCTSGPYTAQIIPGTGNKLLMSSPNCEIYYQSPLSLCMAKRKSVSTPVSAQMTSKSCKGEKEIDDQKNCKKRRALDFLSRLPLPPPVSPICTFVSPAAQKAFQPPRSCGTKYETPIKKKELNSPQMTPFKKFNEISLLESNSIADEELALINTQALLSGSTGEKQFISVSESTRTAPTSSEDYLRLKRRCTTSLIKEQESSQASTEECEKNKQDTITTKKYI
UniProt P51587, 1-2142: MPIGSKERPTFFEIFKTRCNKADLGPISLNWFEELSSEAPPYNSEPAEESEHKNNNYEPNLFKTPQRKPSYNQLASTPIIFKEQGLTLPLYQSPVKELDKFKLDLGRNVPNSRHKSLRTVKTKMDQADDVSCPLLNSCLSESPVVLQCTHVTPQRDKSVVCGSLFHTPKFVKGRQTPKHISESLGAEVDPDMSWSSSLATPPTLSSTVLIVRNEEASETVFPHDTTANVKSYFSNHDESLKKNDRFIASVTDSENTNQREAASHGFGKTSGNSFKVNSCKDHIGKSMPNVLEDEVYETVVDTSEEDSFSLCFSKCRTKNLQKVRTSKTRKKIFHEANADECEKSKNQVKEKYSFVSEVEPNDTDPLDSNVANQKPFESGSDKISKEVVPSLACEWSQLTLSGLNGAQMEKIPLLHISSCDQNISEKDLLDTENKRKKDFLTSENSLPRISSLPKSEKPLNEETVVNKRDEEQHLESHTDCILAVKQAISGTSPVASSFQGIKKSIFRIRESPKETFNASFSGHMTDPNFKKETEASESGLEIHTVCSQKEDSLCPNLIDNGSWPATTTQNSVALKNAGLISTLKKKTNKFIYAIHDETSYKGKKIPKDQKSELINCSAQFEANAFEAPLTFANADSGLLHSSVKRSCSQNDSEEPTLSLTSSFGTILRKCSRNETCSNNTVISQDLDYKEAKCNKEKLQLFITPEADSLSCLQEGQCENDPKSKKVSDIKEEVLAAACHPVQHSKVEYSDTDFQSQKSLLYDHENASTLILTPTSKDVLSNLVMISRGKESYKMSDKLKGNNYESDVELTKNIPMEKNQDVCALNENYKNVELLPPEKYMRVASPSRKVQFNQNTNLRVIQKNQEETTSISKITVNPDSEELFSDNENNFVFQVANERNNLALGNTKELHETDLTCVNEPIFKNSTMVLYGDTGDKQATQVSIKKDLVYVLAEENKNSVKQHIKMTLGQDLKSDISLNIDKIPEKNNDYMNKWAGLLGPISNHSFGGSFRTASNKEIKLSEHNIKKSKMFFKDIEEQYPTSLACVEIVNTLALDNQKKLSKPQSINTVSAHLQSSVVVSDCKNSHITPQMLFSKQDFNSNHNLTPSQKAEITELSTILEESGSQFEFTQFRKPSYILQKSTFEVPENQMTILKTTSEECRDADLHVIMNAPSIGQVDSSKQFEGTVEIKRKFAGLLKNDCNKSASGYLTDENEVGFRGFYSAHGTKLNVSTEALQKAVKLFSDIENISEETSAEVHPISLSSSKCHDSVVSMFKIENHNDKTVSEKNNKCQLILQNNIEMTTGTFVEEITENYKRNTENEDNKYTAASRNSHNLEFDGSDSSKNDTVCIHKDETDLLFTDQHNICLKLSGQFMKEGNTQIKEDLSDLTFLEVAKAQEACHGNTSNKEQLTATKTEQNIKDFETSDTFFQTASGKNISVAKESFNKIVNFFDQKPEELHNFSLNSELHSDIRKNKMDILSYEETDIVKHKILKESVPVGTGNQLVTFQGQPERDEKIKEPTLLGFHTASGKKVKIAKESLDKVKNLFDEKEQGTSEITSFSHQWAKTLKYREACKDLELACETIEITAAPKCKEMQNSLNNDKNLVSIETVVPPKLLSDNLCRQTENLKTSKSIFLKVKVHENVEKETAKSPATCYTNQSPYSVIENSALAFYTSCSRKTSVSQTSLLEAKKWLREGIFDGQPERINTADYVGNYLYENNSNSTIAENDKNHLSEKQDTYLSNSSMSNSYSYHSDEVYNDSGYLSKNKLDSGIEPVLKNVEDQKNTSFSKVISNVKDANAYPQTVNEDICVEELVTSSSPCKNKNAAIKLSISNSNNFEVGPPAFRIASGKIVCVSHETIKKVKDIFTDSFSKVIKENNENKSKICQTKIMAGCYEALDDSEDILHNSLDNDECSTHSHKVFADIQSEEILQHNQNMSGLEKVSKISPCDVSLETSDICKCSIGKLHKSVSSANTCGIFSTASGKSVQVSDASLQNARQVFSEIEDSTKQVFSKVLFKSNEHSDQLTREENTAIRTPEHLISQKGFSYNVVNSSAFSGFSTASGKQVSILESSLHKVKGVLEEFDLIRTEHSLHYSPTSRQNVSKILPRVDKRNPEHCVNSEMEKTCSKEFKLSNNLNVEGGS
BRCA2-C (Homo sapiens), one chain, as listed by the source, chain 1 of 3: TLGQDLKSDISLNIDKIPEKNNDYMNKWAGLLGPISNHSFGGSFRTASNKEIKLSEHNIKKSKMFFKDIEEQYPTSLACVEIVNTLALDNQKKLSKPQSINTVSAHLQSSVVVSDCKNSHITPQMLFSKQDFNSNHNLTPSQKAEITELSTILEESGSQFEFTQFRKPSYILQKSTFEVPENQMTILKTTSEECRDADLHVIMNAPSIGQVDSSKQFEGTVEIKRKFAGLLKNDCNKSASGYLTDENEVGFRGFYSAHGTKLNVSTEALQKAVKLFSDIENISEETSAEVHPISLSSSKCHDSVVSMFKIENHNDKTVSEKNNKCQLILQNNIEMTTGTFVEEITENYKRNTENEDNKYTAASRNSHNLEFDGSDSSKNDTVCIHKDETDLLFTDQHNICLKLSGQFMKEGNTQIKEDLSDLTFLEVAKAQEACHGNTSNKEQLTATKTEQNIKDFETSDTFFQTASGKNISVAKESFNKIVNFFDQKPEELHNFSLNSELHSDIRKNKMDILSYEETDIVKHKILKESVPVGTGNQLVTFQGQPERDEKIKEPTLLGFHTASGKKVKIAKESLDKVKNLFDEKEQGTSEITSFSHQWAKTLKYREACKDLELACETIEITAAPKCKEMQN
BRCA2-C (Homo sapiens), one chain, as listed by the source, chain 3 of 3: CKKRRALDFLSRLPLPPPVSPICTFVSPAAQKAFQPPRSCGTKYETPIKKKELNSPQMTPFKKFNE
BRCA2-C (Homo sapiens), one chain, as listed by the source, chain 2 of 3: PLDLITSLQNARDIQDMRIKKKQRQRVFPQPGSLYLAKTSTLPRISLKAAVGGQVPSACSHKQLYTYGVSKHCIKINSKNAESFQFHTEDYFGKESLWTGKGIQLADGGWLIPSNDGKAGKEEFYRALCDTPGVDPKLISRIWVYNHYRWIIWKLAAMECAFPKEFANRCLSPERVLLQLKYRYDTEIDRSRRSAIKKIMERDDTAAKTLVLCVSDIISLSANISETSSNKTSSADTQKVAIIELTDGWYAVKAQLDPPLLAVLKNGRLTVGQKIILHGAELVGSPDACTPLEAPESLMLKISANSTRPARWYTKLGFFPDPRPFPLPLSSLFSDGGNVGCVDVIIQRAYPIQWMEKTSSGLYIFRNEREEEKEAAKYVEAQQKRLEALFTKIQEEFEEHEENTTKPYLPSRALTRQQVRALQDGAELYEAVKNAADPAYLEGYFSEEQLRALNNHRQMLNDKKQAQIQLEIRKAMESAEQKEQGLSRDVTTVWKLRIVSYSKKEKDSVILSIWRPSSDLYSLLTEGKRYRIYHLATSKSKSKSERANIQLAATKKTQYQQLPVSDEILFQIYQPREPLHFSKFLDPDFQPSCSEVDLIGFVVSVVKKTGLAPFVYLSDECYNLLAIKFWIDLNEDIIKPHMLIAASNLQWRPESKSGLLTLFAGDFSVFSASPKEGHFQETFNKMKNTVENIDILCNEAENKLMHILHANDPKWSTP

Q: Does “CCAAGAAGCTGTTCAGAATCAGAATGAGCCGCAACTTCGGGATGAAAATGCTCACAATGACAAATCTGTCCACGGAGTGCTTAATCCAACTTACCAAGCT [100mer ssDNA]” bind (BRCA2-C2 (Homo sapiens))?
A: binds

Q: Does “CCAAGAAGCTGTTCAGAATCAGAATGAGCCGCAACTTCGGGATGAAAATGCTCACAATGACAAATCTGTCCACGGAGTGCTTAATCCAACTTACCAAGCT [100mer ssDNA]” bind (BRCA2-N (Homo sapiens))?
A: binds more weakly

Q: Does “CCAAGAAGCTGTTCAGAATCAGAATGAGCCGCAACTTCGGGATGAAAATGCTCACAATGACAAATCTGTCCACGGAGTGCTTAATCCAACTTACCAAGCT [100mer ssDNA]” bind (BRCA2-C (Homo sapiens))?
A: binds more weakly

Q: Does “CCAAGAAGCTGTTCAGAATCAGAATGAGCCGCAACTTCGGGATGAAAATGCTCACAATGACAAATCTGTCCACGGAGTGCTTAATCCAACTTACCAAGCT [100mer ssDNA]” bind [1]?
A: binds

Source: publication PMC7615647, “Visualization of direct and diffusion-assisted RAD51 nucleation by full-length human BRCA2 protein” (Molecular cell, 2023)
